From PubChem BioAssay AID493014 (National Center for Advancing Translational Sciences (NCATS), 2011)
The campaign covered roughly 340,000 compounds. About 170 (0.05%) were called active. Inconclusive means that the source gave no clear call. Such entries were picked first, then a sample of the others. Calls come from the whole dose curve; as a rule, active = well fitted inhibition curve with a large enough effect in the signal ratio, with a control signal flat (not every such curve was filed as active); inconclusive = small, poorly fitted or top-dose-only effect, or effect the other way, or a change in a side signal; inactive = flat fitted curve, though single readings scatter; the % refers to the signal ratio. Potencies of inconclusive entries are doubtful fits and often do not repeat.
Potency is the fitted concentration of half-maximal effect.

Assay: qHTS Assay to Find Inhibitors of Chronic Active B-Cell Receptor Signaling;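 for activity change, negative = inhibition: plate controls were basal doxycycline-induced cells for no effect and cells given 10 µM MG132 for full effect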
Details: ABC-DLBCL IkBa-CBG/CBR reporter, luminescence ratio (green luciferase fused to IkBa over red control in TMD8 lymphoma cells), 4 h; activity change, negative = inhibition: at 46.1 µM (top of the series) unless noted
Outline: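 Compounds up to 46 uM were incubated four hours with TMD8 cells whose green CBG68 luciferase is fused to IkappaBalpha; red CBR luminescence normalised the signal, and concentration-effect curves were fitted to fusion, red and ratio data.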
For `COc1cccc(N2CCN(C(=O)C3CCC(=O)N(C4CCCCCC4)C3)CC2)c1` (stereo not given), the activity change, negative = inhibition was inconclusive: -12%. With `COC(=O)c1cc(Cl)c(NC(=O)/C=C/c2ccc(Cl)cc2)cc1OC` the activity change, negative = inhibition was inconclusive: 0.731%. For `CCNC(=S)NNC(=O)c1csc2c1CCC(C)C2` (stereo not given), the Potency was inconclusive: 35.5 µM [falling, single point]. For `CCCC(=O)N1CCN(c2ccc(NC(=O)c3ccc([N+](=O)[O-])o3)cc2Cl)CC1`, the Potency was inconclusive: 12.6 µM [falling, partial curve]. In the case of `Cc1ccc(C)c(C(C)NC(=O)c2ccc(Br)o2)c1` (stereo not given), the activity change, negative = inhibition is reported as inconclusive: 8.73%. With `O=C(Nc1ccc(C2=NCCN2)cc1)c1ccc(C(=O)Nc2ccc(C3=NCCN3)cc2)c(Cl)c1` the activity change, negative = inhibition was inconclusive: 7.31%. In the case of `c1cncc(CSc2ccc(-c3cccs3)nn2)c1`, the activity change, negative = inhibition is reported as “inactive”. In the case of `CN(CC(=O)Nc1ccc(F)cc1[N+](=O)[O-])Cc1ccccc1`, the activity change, negative = inhibition is reported as inconclusive: 8.66%. For `CCN(c1ccccc1)S(=O)(=O)c1cc(C(=O)Nc2ccccc2Cl)ccc1F`, the activity change, negative = inhibition was “inactive”. With `C=CC[C@@H](Cc1ccc(F)cc1)C(=O)OC[C@H]1CCCN1C(=O)[C@@H](CC=C)CC(=O)N[C@@H](CO)Cc1ccccc1` the activity change, negative = inhibition was inconclusive: -5.37%. With `CCCC(=O)N1CCN(c2nnc(-c3ccc(C)cc3)c3ccccc23)CC1` the activity change, negative = inhibition was inconclusive: -5.53%. For `CCc1ccc(N(C(=O)c2snc(C(N)=O)c2N)C(C(=O)NC2CCCC2)c2ccco2)cc1` (stereo not given), the activity change, negative = inhibition was “inactive”. In the case of `O=C1CSC(c2cccc(F)c2)N1c1ccccc1F` (stereo not given), the activity change, negative = inhibition is reported as inconclusive: 8%. With `CCOC(=O)C1CCN(C(=S)Nc2cc(OC)c(OC)cc2C(=O)OC)CC1` the activity change, negative = inhibition was inconclusive: 11.3%. For `CS(=O)(=O)c1ccc2nc(NC(=O)c3cccc(NS(=O)(=O)c4ccc(F)c(F)c4)c3)sc2c1`, the activity change, negative = inhibition was inconclusive: -15%. With `CCOC(=O)c1c(C)n(-c2ccc(C)cc2)c2ccc(O)c(CN(C)C)c12` the Potency was inconclusive: 22.4 µM [falling, single point]. In the case of `COC(=O)CCCCCN1C(=O)NC(c2ccccc2)C(C(=O)OCc2ccccc2)=C1C` (stereo not given), the activity change, negative = inhibition is reported as inconclusive: -8.33%. In the case of `O=C(Cc1ccc(S(=O)(=O)N2CCOCC2)s1)Nc1nc2c(s1)CCCC2`, the activity change, negative = inhibition is reported as “inactive”. With `CCOC(=O)Cn1c(S(=O)(=O)Cc2ccccc2Cl)nc(-c2ccccc2)c1-c1ccccc1` the activity change, negative = inhibition was inconclusive: 1.04%. In the case of `C=CCNC(=O)NC(=O)COC(=O)c1cccnc1SC`, the activity change, negative = inhibition is reported as inconclusive: 17.2%. For `COc1cccc2cc(-c3nc4ccc(C)cc4[nH]3)c(=O)oc12`, the Potency was inconclusive: 11.2 µM [falling, partial curve, poor fit]. In the case of `O=C(c1ccc(Cl)cc1)[C@@H]1[C@@H]2C(=O)N(c3ccc(Cl)cc3)C(=O)[C@@H]2C2c3ccccc3C=NN21` (stereo not given in full), the activity change, negative = inhibition is reported as “inactive”. In the case of `O=C(NC(=S)N1CCCCC1)c1cccs1`, the Potency is reported as inconclusive: 18.4 µM [falling, partial curve, poor fit]. For `S=c1[nH]nc(-c2cccnc2)n1/N=C/c1ccco1`, the activity change, negative = inhibition was “inactive”. For `Cc1c(C#N)c(N)c(C(=O)c2ccccc2)n1Cc1ccccc1`, the activity change, negative = inhibition was inconclusive: 13.2%. In the case of `Cc1ccc(C(=O)Nc2cccc(C(F)(F)F)c2)cc1NC(=O)c1csc(-c2ccncc2)n1`, the activity change, negative = inhibition is reported as “inactive”. For `O=C(N/N=C\C=C\c1ccco1)c1cc(-c2ccc3ccccc3c2)n[nH]1`, the Potency was inconclusive: 0.92 µM [rising, full curve]. For `CC(C)CNC(=S)NC(=O)c1csc([N+](=O)[O-])c1`, the activity change, negative = inhibition was inconclusive: 18.7%. With `COc1ccc(-c2cc(C(=O)N(C)Cc3cccc(OC)c3OC)c3ccccc3n2)cc1OC` the Potency was inconclusive: 4.47 µM [falling, partial curve, poor fit]. With `CC1(C)C(=O)OC(c2c(F)c(F)c(F)c(F)c2F)C2(CCCCC2)C1=O` (stereo not given) the activity change, negative = inhibition was “inactive”. For `CC(=O)NC(CC(=O)NCc1ccncc1)c1ccccc1` (stereo not given), the activity change, negative = inhibition was “inactive”. In the case of `CCCn1c(-c2ccc(OC)cc2)nc2ccccc21`, the Potency is reported as inconclusive: 22.4 µM [falling, single point]. In the case of `CC(C)(O)C(=O)N=Nc1c(O)[nH]c2ccccc12`, the activity change, negative = inhibition is reported as inconclusive: -9.05%. For `Clc1cccc(Cl)c1C1=NOC(c2nnc(-c3ccccc3)o2)C1` (stereo not given), the activity change, negative = inhibition was inconclusive: -19.4%. For `CS/C(=C\[N+](=O)[O-])Nc1ccc(Cl)cc1`, the Potency was inconclusive: 32.6 µM [falling, single point]. With `COc1cc(Cl)cc(CN2CCC(CCC(=O)NC3CC3)CC2)c1OC` the activity change, negative = inhibition was “inactive”. In the case of `Cn1c(SCC(=O)Nc2ccccc2)nc2c([nH]c3ccccc32)c1=O`, the activity change, negative = inhibition is reported as inconclusive: 0.483%. With `Cc1[nH]c(=O)[nH]c(=O)c1NC(=O)c1sc2nc3c(C)cccc3cc2c1N` the activity change, negative = inhibition was inconclusive: 12.4%. For `c1ccc(-c2nnc(-c3ccccn3)c(-c3ccccn3)n2)nc1`, the activity change, negative = inhibition was “inactive”. For `CCOc1cc(/C=N/NC(=O)c2cccs2)cc([N+](=O)[O-])c1O`, the Potency was inconclusive: 3.16 µM [falling, full curve]. In the case of `c1ccc(-c2cc3cc4c(cc3cn2)OCO4)cc1`, the activity change, negative = inhibition is reported as inconclusive: -11.4%. With `COc1cccc(N/C=C/C(=O)c2ccc(Cl)cc2)c1` the Potency was inconclusive: 20.6 µM [falling, partial curve]. In the case of `Cc1ccc(-c2noc(N=O)c2NO)cc1`, the Potency is reported as inconclusive: 11.2 µM [rising, partial curve, poor fit]. In the case of `O=C1N/C(=C/c2ccc(Br)s2)C(=O)N1c1ccccc1`, the Potency is reported as inconclusive: 11.2 µM [falling, partial curve]. For `O=S(=O)(c1ccccc1Cl)N1CCCC1c1nc(-c2ccc(Cl)cc2)no1` (stereo not given), the activity change, negative = inhibition was inconclusive: -1.41%. In the case of `CCCCCCc1cc2cc(-c3nnc(-c4ccccc4OC)o3)c(=O)oc2cc1O`, the Potency is reported as inconclusive: 18.4 µM [falling, partial curve]. In the case of `CC1Cc2ccccc2N1C(=O)CSC1=NCCS1` (stereo not given), the activity change, negative = inhibition is reported as inconclusive: -2.22%. In the case of `COc1ccc(OC)c(NC(=O)c2cc3c(Cl)nc4ccccc4c3s2)c1`, the Potency is reported as inconclusive: 1.16 µM [falling, full curve, poor fit]. In the case of `Cc1ccc(CN2C(=O)CN(C3CCCCCC3)C(=O)C2c2ccc(F)cc2)cc1` (stereo not given), the activity change, negative = inhibition is reported as “inactive”. For `CCNc1c([N+](=O)[O-])c(=O)oc2ccccc12`, the activity change, negative = inhibition was “inactive”. In the case of `Cc1cc(NC(=O)CSc2nnnn2-c2ccccc2C)no1`, the Potency is reported as inconclusive: 35.5 µM [falling, partial curve, poor fit]. With `C[C@H](CCC(=O)O)[C@H]1CC[C@H]2[C@@H]3[C@H](O)C[C@@H]4C[C@H](O)CC[C@]4(C)[C@H]3CC[C@]12C` the Potency was inconclusive: 29.1 µM [falling, single point]. For `Nc1nc(-c2cccc(NS(=O)(=O)c3ccccc3)c2)cs1`, the activity change, negative = inhibition was “inactive”. With `COc1ccc2[nH]c(=O)c(CN(Cc3nnnn3Cc3ccccc3)CC3CCCO3)cc2c1` (stereo not given) the activity change, negative = inhibition was inconclusive: -1.05%. For `CCOc1ccc(NC(=O)CSc2nccn2C2CCCC2)cc1`, the activity change, negative = inhibition was “inactive”. With `COc1ccc2[nH]c3c(c2c1)CCN1C(=O)C(CC(=O)NCc2cccc(C(F)(F)F)c2)C[C@H](C(=O)N2CCCCC2)[C@@]31CCc1ccccc1` (stereo not given in full) the activity change, negative = inhibition was inconclusive: 5.34%. With `O=C(CN1C(=O)c2cccc([N+](=O)[O-])c2C1=O)NCc1ccccc1` the activity change, negative = inhibition was “inactive”. In the case of `Cc1ccc(NC2CCCN(C(=O)CN3C(=O)c4ccccc4C3=O)C2)cc1C` (stereo not given), the activity change, negative = inhibition is reported as inconclusive: -0.902%. In the case of `NC(=O)c1ccccc1N(Cc1ccccc1)S(=O)(=O)c1ccccc1`, the activity change, negative = inhibition is reported as “inactive”. In the case of `CCOc1cc2c3c(c1)C1(Nc4ccccc4S1)C(=O)N3C(C)(C)CC2C` (stereo not given), the Potency is reported as inconclusive: 20.6 µM [rising, single point]. In the case of `CC(=O)OCC[C@H](NS(=O)(=O)OCC(Cl)(Cl)Cl)c1ccccc1`, the activity change, negative = inhibition is reported as inconclusive: 12%. For `NNC(=O)COc1ccccc1F`, the activity change, negative = inhibition was inconclusive: 7.36%. With `C/C(=N\NC(=O)C(C)n1nc(C)c([N+](=O)[O-])c1C)c1ccccc1O` (stereo not given) the activity change, negative = inhibition was inconclusive: -19.2%. With `CC(C)(C)[C@@H]1COC(=O)[C@@H](Cc2ccc(F)cc2)C/C=C\C[C@H](CC(=O)N(CCO)Cc2ccccc2)C(=O)N1` the activity change, negative = inhibition was “inactive”. In the case of `COc1ccc2nc(Nc3ccc4c(c3)OCO4)sc2c1`, the activity change, negative = inhibition is reported as inconclusive: -26.2%. With `Fc1ccc(-c2nnn3c2nc(NCc2ccccc2)c2ccccc23)cc1` the Potency was inconclusive: 20 µM [falling, partial curve]. With `CCCCCCOc1ccc(C(=O)n2cnc(N)n2)cc1` the activity change, negative = inhibition was “inactive”. In the case of `COc1ccc(CC(=O)O/N=C(\N)c2ccc(C)cc2)cc1`, the activity change, negative = inhibition is reported as “inactive”. With `COc1cccc(Nc2ccc(C(=O)O)cc2N)c1` the activity change, negative = inhibition was inconclusive: -16.7%. With `COc1ccc(C2=NC(C(F)(F)F)(C(F)(F)F)c3c(n(C)c(=O)n(C)c3=O)N2)cc1` the activity change, negative = inhibition was inconclusive: -9.34%. In the case of `Cc1ccccc1N(CC(=O)Nc1ccccc1C(=O)O)S(C)(=O)=O`, the Potency is reported as inconclusive: 12.6 µM [falling, partial curve]. In the case of `S=c1[nH]c2cc3ccccc3cc2[nH]1`, the activity change, negative = inhibition is reported as inconclusive: 220%. With `CN1CCN(C(=O)CN(Cc2ccccc2)S(C)(=O)=O)CC1` the activity change, negative = inhibition was inconclusive: -1.61%. For `O=C(CCCCl)NC(=S)Nc1ccc(N2CCOCC2)cc1`, the activity change, negative = inhibition was inconclusive: 0.473%. In the case of `Cc1ccc2[nH]c(=O)c(CN(CCN3CCOCC3)C(=O)Nc3ccccc3F)cc2c1`, the activity change, negative = inhibition is reported as inconclusive: -3.28%. In the case of `CNc1nc(-c2ccc3c(c2)CCN3C(=O)c2ccccc2C)cs1`, the activity change, negative = inhibition is reported as “inactive”. For `N#CC1=C(N)Oc2cc(N)ccc2C1c1ccc(F)cc1` (stereo not given), the activity change, negative = inhibition was inconclusive: 18.9%. With `COc1cc(C(=O)O)ccc1OCc1c(C)noc1C` the activity change, negative = inhibition was inconclusive: 23.8%. With `COc1ccc(CC(=O)c2ccc(OC)c(OC)c2C)cc1OC` the activity change, negative = inhibition was “inactive”. For `CC(=O)Nc1ccc(S(=O)(=O)NC2CC(=O)N(c3cccc(F)c3)C2)cc1` (stereo not given), the activity change, negative = inhibition was inconclusive: -0.434%.
